In test [1] the target is MOR-nLuc (rat µ opioid receptor, wild type, with C-terminal nLuc) (rat) (UniProt P33535). Description: FRET or BRET; as a1, with the partial agonist morphine as the agonist.
Test [2] shares this target. Description: FRET or BRET; as a1, with the partial agonist buprenorphine as the agonist. On the technique in general: BRET reads energy transfer from a luciferase to a nearby fluorophore.
The target is the same in test [3]. Description: FRET or BRET; BRET in living HEK293T cells transfected with MOR-nLuc, sYFP-Arrestin3 and GRK2; 96-well plate reader, 37°C, external buffer with 1 µM 6H-F-Colenterazine; increasing concentrations of agonist (DAMGO, fentanyl, methadone, Met-enkephalin), then saturating DAMGO.

Chains of the proteins cited; added tags and fusions are not shown.
UniProt P33535, whole entry: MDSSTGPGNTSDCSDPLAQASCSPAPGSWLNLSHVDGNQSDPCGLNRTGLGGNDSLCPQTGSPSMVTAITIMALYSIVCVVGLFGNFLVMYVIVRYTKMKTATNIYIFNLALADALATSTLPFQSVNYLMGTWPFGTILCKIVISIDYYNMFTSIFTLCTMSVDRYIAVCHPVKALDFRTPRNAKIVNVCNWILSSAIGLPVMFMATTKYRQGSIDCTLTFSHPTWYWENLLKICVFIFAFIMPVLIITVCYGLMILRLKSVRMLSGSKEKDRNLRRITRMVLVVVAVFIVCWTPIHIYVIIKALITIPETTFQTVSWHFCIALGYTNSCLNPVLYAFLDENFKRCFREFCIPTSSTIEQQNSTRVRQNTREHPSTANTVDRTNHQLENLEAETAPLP
UniProt P32120, whole entry: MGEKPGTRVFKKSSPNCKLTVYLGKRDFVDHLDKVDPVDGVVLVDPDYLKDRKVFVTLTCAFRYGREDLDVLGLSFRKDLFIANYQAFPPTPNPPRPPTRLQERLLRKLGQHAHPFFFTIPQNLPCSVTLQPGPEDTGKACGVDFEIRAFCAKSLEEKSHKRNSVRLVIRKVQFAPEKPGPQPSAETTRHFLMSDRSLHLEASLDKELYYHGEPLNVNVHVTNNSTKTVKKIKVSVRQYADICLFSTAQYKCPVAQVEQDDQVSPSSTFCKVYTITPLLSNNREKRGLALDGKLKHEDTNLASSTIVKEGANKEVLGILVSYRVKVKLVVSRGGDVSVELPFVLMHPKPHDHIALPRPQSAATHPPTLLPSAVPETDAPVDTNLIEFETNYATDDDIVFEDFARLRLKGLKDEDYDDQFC

No constants are given. Whether binding was seen depends on the method and setting. Binding seen in cells or lysates may run through a third protein. Some results given as binding are weak or reduced against the parent protein; the word gives no strength.

Consider “sYFP-Arrestin3 (bovine Arrestin3 with sYFP2) (from UniProt P32120 1-420)”, for which the binding result in test [1] is on record as “binds weakly”; in test [2] it was “no binding (condition: with buprenorphine as the agonist)”; in test [3], “binds”.

The values above are taken from publication PMC11806106.
